{"source": "PubChem BioAssay AID1259425 (University of Nebraska Medical Center, 2018)", "test": "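Compare each knockdown with KSR1 silencing using changes in marker transcripts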 (primary screen)", "cells": "HCT116 human colon cancer cells", "reagent": "siRNA pool against human genes, 50 nM siRNA", "measurement": "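After 50 nM siRNA pool, branched-DNA assay measures six marker transcripts per well, minus blank, normalised to the geometric mean of two housekeeping transcripts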", "scale": "BNIP3L mRNA: higher = more BNIP3L transcript after knockdown", "note": "The deposit covers about 14,000 reagents; this is a random part of them. Not all columns of the deposit are shown. Not given: the time to read-out."}
{"target gene": "NDUFAB1", "BNIP3L mRNA, set 1": 0.1}
{"target gene": "NDUFB11", "BNIP3L mRNA, set 1": 0.105}
{"target gene": "PDZD11", "BNIP3L mRNA, set 1": 0.172}
{"target gene": "ATP10D", "BNIP3L mRNA, set 1": 0.133}
{"target gene": "ARFRP1", "BNIP3L mRNA, set 1": 0.0556}
{"target gene": "ZNF273", "BNIP3L mRNA, set 1": 0.0646}
{"target gene": "OCRL", "BNIP3L mRNA, set 1": 0.0726}
{"target gene": "KLF15", "BNIP3L mRNA, set 1": 0.0897}
{"target gene": "SLC27A4", "BNIP3L mRNA, set 1": 0.101}
{"target gene": "ATP12A", "BNIP3L mRNA, set 1": 0.136}
{"target gene": "ZNF18", "BNIP3L mRNA, set 1": 0.118}
{"target gene": "MRPL42", "BNIP3L mRNA, set 1": 0.122}
{"target gene": "TSPAN3", "BNIP3L mRNA, set 1": 0.0867}
{"target gene": "VEZF1", "BNIP3L mRNA, set 1": 0.0721}
{"target gene": "NCAPD2", "BNIP3L mRNA, set 1": 0.155}
{"target gene": "FZD5", "BNIP3L mRNA, set 1": 0.184}
{"target gene": "COQ7", "BNIP3L mRNA, set 1": 0.0987}
{"target gene": "ENOPH1", "BNIP3L mRNA, set 1": 0.0997}
{"target gene": "ZMYND10", "BNIP3L mRNA, set 1": 0.102}
{"target gene": "JRKL", "BNIP3L mRNA, set 1": 0.167}
{"target gene": "CDV3", "BNIP3L mRNA, set 1": 0.101}
{"target gene": "SAC3D1", "BNIP3L mRNA, set 1": 0.102}
{"target gene": "PPAN", "BNIP3L mRNA, set 1": 0.131}
{"target gene": "FCGRT", "BNIP3L mRNA, set 1": 0.0834}
{"target gene": "SLC44A2", "BNIP3L mRNA, set 1": 0.188}
{"target gene": "PMP22", "BNIP3L mRNA, set 1": 0.0897}
{"target gene": "MAOA", "BNIP3L mRNA, set 1": 0.0616}
{"target gene": "ARC", "BNIP3L mRNA, set 1": 0.218}

Laid out differently: 5 of the entries above.
target gene	BNIP3L mRNA, set 1
NCAPD2	0.155
FZD5	0.184
COQ7	0.0987
ENOPH1	0.0997
ZMYND10	0.102
